Consider one molecule from article PMC3557289.

Results are given in words; binding and its absence hold for the method and conditions named. In cells and extracts the contact can be indirect. Binding can be weak; no strength is given. Where a sequence is shown, tags or fusion partners need not be part of it.

The target in this assay is PPV-VPg fused to the C-terminal fragment of YFP (Plum pox virus). Nature of the assay: split reporter; BiFC with YFP fragments 1-174 (YN) and 175-239 (YC); transient co-expression in N. benthamiana epidermal cells by agroinfiltration; confocal imaging 36-48 hours after infiltration.

B1: PdeIF(iso)4E fused to the N-terminal fragment of YFP (protein, UniProt M1J8U6 1-213)
chain: MATEVAAAVPPPQLDAEENSGLEAAAAEAKIQPSSGPHKLERKWTFWFDNQSKPKQGAAWGSSLRKAYTFETVQEFWCLYDQVFKPSKFPPNADFHLFRAGVEPKWEDPECANGGKWTVTSRSKASLDTMWLETLMALIGEQFDEADEICGVVASVRQRQDKLALWTRNAANEAAQMGIGRKWKEIIDVTDKITYSFHDDSKRERSAKPRYNV
Consider B1, for which the binding entry was “binds”.
